At least one structure is not confirmed: it was looked up by name or label, or the drawing left a doubt.
Test system: TC-1 cells (HPV18 E6/E7)
Test: Murine model of HPV-associated tumor (TC-1), CAB therapy with FTY720
Type: in vivo

Measured: survival of mice bearing HPV-associated tumors

CCCCCCCCc1ccc(CCC(N)(CO)CO)cc1 [FTY720, fingolimod]
significantly increases survival: combination of FTY720 and CAB therapy | combination of FTY720 and allogeneic CAB therapy | combination of FTY720 and cryopreserved CAB therapy

From patent publication US11850279B2, “Platforms and methods for optimizing host antigen presentation and host antitumor and antipathogen immunity” (OHIO STATE INNOVATION FOUNDATION, priority 2016, dated 2023)
